Patent US20240329033A1, “MonoMac-1 Cells Expressing CD16 and CD163” (Temple University-Of The Commonwealth System of Higher …, priority 2016, published 2024)
At least one structure is not confirmed: it was looked up by name or label, or the drawing left a doubt.

Test system: MONO-MAC-1 cells
Experiment: Flow cytometry of CD163, CD16 and CD4 expression in differentiated MONO-MAC-1 cells
Format: cell-based, human
Conditions: antagonist 500 nM added after PMA/LPS 72 h and 4 days MCSF+DEX
Protocol: MONO-MAC-1 cells were cultured at 37° C. in a humidified atmosphere containing 5% CO2 using RPM1 1640 medium supplemented with 10% heat-inactivated fetal bovine serum (FBS, Sigma) and 1% of stable glutamine, 1 mM sodium pyruvic acid and 1×MEM non-essential amino acids were added. Cells were seeded at a density of 0.5×10^6 cells/ml and were sub cultured upon reaching 1× 10^6 cells/ml. Medium was changed every 2 to 3 days. […] Data were analyzed with GraphPad Prism (version 6) soft-ware. Flow cytometric measurements were performed using four colors FACSCalibur (Becton Dickinson).

CC#C[C@]1(O)CC[C@H]2[C@@H]3CCC4=CC(=O)CCC4=C3[C@@H](c3ccc(N(C)C)cc3)C[C@@]21C [RU486]
decreases the expression: expression of CD16+ monocytes (FIG. 4A) | expression of CD4+ monocytes (FIG. 4B) | expression of CD163+ monocytes (FIG. 4C)
